Assay results taken from patent US20240102023A1.
No constants are given. Whether binding was seen depends on the method and setting. In cells and extracts the contact can be indirect. Some binding calls cover weakened binding; strength is not graded here.

The chains behind the UniProt entries cited, without tags or fusion partners. Residues count along the entry.
UniProt P03372, residues 302-595: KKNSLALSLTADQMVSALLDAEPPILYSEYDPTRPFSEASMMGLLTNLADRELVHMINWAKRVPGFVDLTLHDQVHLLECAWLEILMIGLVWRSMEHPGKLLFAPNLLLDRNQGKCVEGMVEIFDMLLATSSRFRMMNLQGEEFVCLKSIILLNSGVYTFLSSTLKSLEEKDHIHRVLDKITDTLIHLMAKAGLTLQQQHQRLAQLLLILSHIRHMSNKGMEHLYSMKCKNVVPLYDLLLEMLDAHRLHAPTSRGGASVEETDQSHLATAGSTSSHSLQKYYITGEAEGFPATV

Experiments:
GST-ER fusion protein [1] = molecular target: GST-ER fusion protein (UniProt P03372); assay: GST pull-down, GST-ER with Hela nuclear extract in the presence of MED1SP RNA aptamer, Western blot (FIG. 2D)
GST-ER fusion protein [2] = molecular target: GST-ER fusion protein (UniProt P03372); assay: GST pull-down, GST-ER with Hela nuclear extract in the presence of MED1SP RNA aptamer (discussion of FIG. 2D)

binding (GST-ER fusion protein [1]): binds | binding (GST-ER fusion protein [2]): binds
B1: PGC-1 beta (ER co-activator, from Hela cell nuclear extract) (protein, UniProt Q86YN6 1-1023, looked up)
chain: MAGNDCGALLDEELSSFFLNYLADTQGGGSGEEQLYADFPELDLSQLDASDFDSATCFGELQWCPENSETEPNQYSPDDSELFQIDSENEALLAELTKTLDDIPEDDVGLAAFPALDGGDALSCTSASPAPSSAPPSPAPEKPSAPAPEVDELSLLQKLLLATSYPTSSSDTQKEGTAWRQAGLRSKSQRPCVKADSTQDKKAPMMQSQSRSCTELHKHLTSAQCCLQDRGLQPPCLQSPRLPAKEDKEPGEDCPSPQPAPASPRDSLALGRADPGAPVSQEDMQAMVQLIRYMHTYCLPQRKLPPQTPEPLPKACSNPSQQVRSRPWSRHHSKASWAEFSILRELLAQDVLCDVSKPYRLATPVYASLTPRSRPRPPKDSQASPGRPSSVEEVRIAASPKSTGPRPSLRPLRLEVKREVRRPARLQQQEEEDEEEEEEEEEEEKEEEEEWGRKRPGRGLPWTKLGRKLESSVCPVRRSRRLNPELGPWLTFADEPLVPSEPQGALPSLCLAPKAYDVERELGSPTDEDSGQDQQLLRGPQIPALESPCESGCGDMDEDPSCPQLPPRDSPRCLMLALSQSDPTFGKKSFEQTLTVELCGTAGLTPPTTPPYKPTEEDPFKPDIKHSLGKEIALSLPSPEGLSLKATPGAAHKLPKKHPERSELLSHLRHATAQPASQAGQKRPFSCSFGDHDYCQVLRPEGVLQRKVLRSWEPSGVHLEDWPQQGAPWAEAQAPGREEDRSCDAGAPPKDSTLLRDHEIRASLTKHFGLLETALEEEDLASCKSPEYDTVFEDSSSSSGESSFLPEEEEEEGEEEEEDDEEEDSGVSPTCSDHCPYQSPPSKANRQLCSRSRSSSGSSPCHSWSPATRRNFRCESRGPCSDRTPSIRHARKRREKAIGEGRVVYIQNLSSDMSSRELKRRFEVFGEIEECEVLTRNRRGEKYGFITYRCSEHAALSLTKGAALRKRNEPSFQLSYGGLRHFCWPRYTDYDSNSEEALPASGKSKYEAMDFDSLLKEAQQSLH
